Patent publication US11492325B2

Protein sequences, listed by entry. Tags and fused reporters are not part of them.
UniProt Q12809, whole entry: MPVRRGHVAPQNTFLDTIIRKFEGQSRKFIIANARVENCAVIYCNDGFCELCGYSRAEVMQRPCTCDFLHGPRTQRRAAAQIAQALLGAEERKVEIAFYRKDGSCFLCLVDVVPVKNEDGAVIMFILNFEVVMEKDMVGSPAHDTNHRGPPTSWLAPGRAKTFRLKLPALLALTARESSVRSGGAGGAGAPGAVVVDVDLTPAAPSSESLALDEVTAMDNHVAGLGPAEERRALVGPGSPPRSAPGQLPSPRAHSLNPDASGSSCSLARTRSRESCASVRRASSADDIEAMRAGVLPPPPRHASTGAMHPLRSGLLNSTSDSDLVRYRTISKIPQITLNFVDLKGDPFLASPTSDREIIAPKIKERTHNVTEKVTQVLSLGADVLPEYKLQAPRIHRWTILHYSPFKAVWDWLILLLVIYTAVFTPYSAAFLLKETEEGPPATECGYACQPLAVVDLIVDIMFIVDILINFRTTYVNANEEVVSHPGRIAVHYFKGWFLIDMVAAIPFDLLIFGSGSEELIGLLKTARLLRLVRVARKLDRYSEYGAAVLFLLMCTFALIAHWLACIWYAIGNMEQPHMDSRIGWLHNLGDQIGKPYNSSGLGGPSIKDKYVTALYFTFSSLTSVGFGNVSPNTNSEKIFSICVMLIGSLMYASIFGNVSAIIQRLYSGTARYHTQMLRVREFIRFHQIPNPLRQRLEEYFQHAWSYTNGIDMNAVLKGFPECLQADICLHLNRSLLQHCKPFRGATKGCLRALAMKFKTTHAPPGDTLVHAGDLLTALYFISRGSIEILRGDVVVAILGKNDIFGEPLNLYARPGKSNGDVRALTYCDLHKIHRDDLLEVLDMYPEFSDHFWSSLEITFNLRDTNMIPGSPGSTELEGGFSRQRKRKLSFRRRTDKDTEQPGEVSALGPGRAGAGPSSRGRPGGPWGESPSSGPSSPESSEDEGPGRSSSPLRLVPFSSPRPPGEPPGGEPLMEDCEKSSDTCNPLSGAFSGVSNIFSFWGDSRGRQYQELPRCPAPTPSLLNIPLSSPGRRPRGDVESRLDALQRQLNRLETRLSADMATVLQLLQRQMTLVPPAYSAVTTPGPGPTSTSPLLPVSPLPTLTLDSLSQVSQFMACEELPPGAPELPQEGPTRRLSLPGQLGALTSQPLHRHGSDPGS

Tests used:
[1] = target: Na+ channel currents in LQT3 patient-derived cardiomyocytes (Homo sapiens, UniProt Q14524); conditions: tested form: HCl
[2] = target: hERG potassium channel (IKr) (Homo sapiens, UniProt Q12809); conditions: ratio, Example 2; tested form: HCl

Question: Which results are given for `NC(COc1ccccc1C(F)(F)F)c1ccccc1` (stereo not drawn)?
Answer: ratio (INaP/INaL) ([1]; LQT3 patient-derived cardiomyocytes): > 56; ratio (INaP/INaL) ([1]; Peak/Late ratio): 111; Ratio Mex INaL/Lead INaL ([1]; potency relative to Mexiletine): 28.3; Ratio of Mex Ratio/Lead Ratio ([1]; selectivity relative to Mexiletine): 41; DKr/NaL [2]: 36.1; DNaP/Kr [2]: 1.1

Like-named read-outs stand apart in the source and are kept apart here. The structures given here were assigned with low confidence; some may be wrong.
